Results deposited as PubChem BioAssay AID1259424 (University of Nebraska Medical Center, 2018)

- Purpose: 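Rank knockdowns across the genome by resemblance to the KSR1 depletion profile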 (primary screen)
- Cell system: human HCT116 colon cancer cells
- Reagents: siRNA pool against human genes, 50 nM
- Measured: 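Log2 levels of six mRNAs (branched-DNA multiplex), adjusted by two reference genes and the non-targeting median, then scored against the average KSR1 knockdown pattern as Pearson r and euclidean distance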
- Direction: mean correlation with KSR1 profile and KSR1 correlation: higher = expression change more like KSR1 knockdown; mean distance from KSR1 profile: higher = expression change less like KSR1 knockdown
This is one part, drawn at random, of about 14,000 reagents. 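Higher correlation or smaller distance means closer resemblance to KSR1 loss; control wells, including KSR1 knockdowns, recur on many plates.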 A reagent listed more than once was tested more than once; the source does not tell the runs apart. Not stated in the record: the time to read-out.

target	mean correlation with KSR1 profile	mean distance from KSR1 profile	KSR1 correlation, replicate 1	KSR1 correlation, replicate 2	KSR1 correlation, replicate 3
H1-6	-0.228	1.99	-0.468	-0.221	0.113
TM4SF20	0.276	2.2	0.424	0.319	0.181
KCNA5	-0.355	2.18	-0.268	-0.445	-0.396
PIK3R5	-0.398	2.54	-0.594	-0.441	-0.293
SAP18	-0.182	2.26	0.448	0.105	-0.548
ACOT8	0.0993	2.86	0.0884	0.118	-0.0072
PDCD2	-0.423	3.54	-0.588	-0.615	-0.252
TLNRD1	-0.299	3.43	-0.258	-0.296	-0.284
ADGRA1	0.247	2.11	0.0269	0.291	0.288
TLR3	-0.199	2.28	-0.112	0.267	-0.667
TOMM40L	0.79	1.88	0.669	0.854	0.918
FTO	-0.759	2.41	-0.858	-0.318	-0.765
AVPR1A	0.607	1.5	0.695	0.614	0.586
AVPR1A	0.356	2.39	0.388	0.405	0.102
ENTPD4	0.167	2.32	0.177	0.137	0.146
AMZ2	-0.151	1.29	-0.411	0.149	-0.0783
GBP3	-0.577	2.54	-0.435	-0.533	-0.683
DCXR	0.0448	4.5	-0.0448	0.179	0.239
MMP3	0.14	3.77	0.182	0.168	-0.0497
FUT1	-0.161	2.34	-0.297	-0.0819	0.0677
RBBP4	-0.351	2.34	-0.704	-0.664	0.272
TBC1D5	-0.56	1.53	-0.312	-0.191	-0.557
TNRC6B	-0.076	2.72	0.121	-0.242	-0.0608
RP2	0.349	1.36	0.459	-0.181	0.343
CA14	-0.537	2.41	-0.349	-0.556	-0.519
PKIA	0.61	2.26	0.711	0.63	0.442
NLGN4X	-0.716	2.99	-0.623	-0.664	-0.616
DROSHA	0.128	1.56	-0.0221	-0.0808	0.201
POMGNT2	0.765	0.961	0.639	0.69	0.735
KLK2	-0.921	2.12	-0.817	-0.973	-0.946
IFI44	-0.516	2.42	-0.622	-0.727	-0.584
CCKAR	0.276	1.92	0.257	0.212	0.233
RAVER2	-0.516	1.88	-0.541	-0.184	-0.454
KIF21A	-0.339	3.61	-0.454	-0.405	-0.095
RCE1	0.116	3.46	0.194	0.0143	0.0586
ABHD4	-0.471	2.76	-0.211	-0.603	-0.229
UBE2L3	-0.00229	2.63	-0.0588	0.0184	-0.12
LILRB5	0.504	1.03	0.219	0.401	0.635
AURKB	0.461	2.38	0.733	0.104	-0.0842
JKAMP	-0.64	2.53	-0.538	-0.532	-0.587
DCUN1D4	-0.18	1.35	-0.103	-0.031	-0.346
CLEC1B	-0.0675	1.42	0.0353	-0.0355	-0.197
SRGN	0.416	3.21	-0.00226	0.483	0.559
HAUS5	0.408	2.9	0.416	0.55	0.264
MZT2B	0.38	1.45	0.424	0.102	0.278
CCP110	-0.413	1.93	-0.203	-0.22	-0.533
AGPAT1	0.449	2.13	0.7	0.541	0.452
DGKE	0.427	1.75	0.336	0.537	-0.184
XPOT	-0.612	3.17	-0.422	-0.572	-0.656
FABP4	0.611	1.3	0.814	0.67	0.193

Copied from the list:
JKAMP, mean correlation with KSR1 profile: -0.64
Under “mean distance from KSR1 profile”, MZT2B shows 1.45
Value for TLR3 under “KSR1 correlation, replicate 2”: 0.267
